Tested on: HeLa cells
Test: MTT cytotoxicity assay, HeLa
Format: cell-based
Conditions: Homo sapiens, 72 h incubation
Description: Its cytotoxicity was determined in the human HeLa cervical cancer cell line, the drug-sensitive Colo205 and its resistant counterpart, the ABCB1 expressing Colo320 colon adenocarcinoma cancer cell lines, using the colorimetric 3-(4,5-dimethylthiazol-2-yl)-2,5-diphenyltetrazolium bromide (MTT) test. To investigate the selectivity toward cancer cells, the noncancerous fibroblast CCD-19Lu cell line was included.
The tested compound was dissolved in DMSO to prepare a 5 mM stock solution, which was diluted in complete culture medium, to study the effect of compounds on cell growth of human colonic adenocarcinoma cell lines. Doxorubicin was used as the positive control. The cells were treated with a trypsin-versene (EDTA) solution. Cells were adjusted to a density of 1 × 10^4 cells in 100 μL of the appropriate culture medium and were added to each well, with the exception of the medium control wells. Except for the semiadherent Colo205 and Colo320 cell lines, the other adherent cell lines were seeded 24 h prior to the assay. Then, stock solutions were diluted in the appropriate culture medium, and 2-fold serial dilutions of compounds were prepared in 100 μL of the medium, horizontally. […] Cell growth was determined by measuring the optical density (OD) at 540/630 nm with a Multiscan EX ELISA reader (Thermo Labsystems, Cheshire, WA). […]

COc1cccc2c1C(=O)c1c(O)c3c(c(O)c1C2=O)C[C@@](O)(C(=O)CO)C[C@@H]3O[C@H]1C[C@H](N)[C@H](O)[C@H](C)O1 [doxorubicin, reference compound]
IC50: 328 ± 49 nM

From article PMC12391994, “Synthesis of a fac-Tricarbonylrhenium(I) Complex with Pyrithione, Its Physicochemical Characterization, and Assessment of Biological Effects” (ACS Omega, 2025)
